Laboratory results: paper PMC10927582
Results are given in words; binding and its absence hold for the method and conditions named. For part of these data: Binding can be weak; no strength is given. For part of these data: In cells and extracts the contact can be indirect. For part of these data: Where a sequence is shown, tags or fusion partners need not be part of it.

Protein sequences, listed by entry. Tags and fused reporters are not part of them. Lines headed by an entry give the natural chain unless they say otherwise; changes in a name come on top. Residues count along the entry.
UniProt Q3ZCQ8, residues 45-353: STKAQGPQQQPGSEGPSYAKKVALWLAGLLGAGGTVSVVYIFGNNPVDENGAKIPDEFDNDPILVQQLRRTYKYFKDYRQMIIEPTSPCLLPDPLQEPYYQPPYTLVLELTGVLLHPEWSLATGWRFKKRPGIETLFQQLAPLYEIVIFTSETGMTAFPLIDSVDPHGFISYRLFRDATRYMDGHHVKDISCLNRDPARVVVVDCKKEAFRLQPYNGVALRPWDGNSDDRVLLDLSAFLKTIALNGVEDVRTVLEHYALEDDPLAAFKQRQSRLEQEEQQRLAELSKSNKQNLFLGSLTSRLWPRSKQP
UniProt Q9NS69: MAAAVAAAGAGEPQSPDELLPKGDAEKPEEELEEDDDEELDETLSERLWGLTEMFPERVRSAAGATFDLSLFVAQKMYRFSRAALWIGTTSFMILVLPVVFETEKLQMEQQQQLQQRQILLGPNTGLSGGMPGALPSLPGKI
UniProt Q9BXM7: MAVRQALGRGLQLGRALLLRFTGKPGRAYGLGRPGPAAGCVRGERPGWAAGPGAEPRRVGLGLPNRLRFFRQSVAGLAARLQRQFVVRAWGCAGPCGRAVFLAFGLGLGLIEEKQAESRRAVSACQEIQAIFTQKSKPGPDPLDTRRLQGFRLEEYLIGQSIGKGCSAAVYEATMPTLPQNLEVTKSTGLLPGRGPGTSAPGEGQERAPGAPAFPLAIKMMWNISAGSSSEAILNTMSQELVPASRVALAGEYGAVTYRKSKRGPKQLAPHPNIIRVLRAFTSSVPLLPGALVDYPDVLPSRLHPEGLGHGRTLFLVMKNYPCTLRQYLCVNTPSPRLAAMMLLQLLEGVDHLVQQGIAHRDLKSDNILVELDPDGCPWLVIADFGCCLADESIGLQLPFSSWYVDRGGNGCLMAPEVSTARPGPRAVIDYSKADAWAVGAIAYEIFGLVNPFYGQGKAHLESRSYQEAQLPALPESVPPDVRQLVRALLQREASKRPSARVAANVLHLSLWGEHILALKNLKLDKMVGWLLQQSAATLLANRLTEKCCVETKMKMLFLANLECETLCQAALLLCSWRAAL

T1: Tim23-FLAG (UniProt O14925)
T1 sequence: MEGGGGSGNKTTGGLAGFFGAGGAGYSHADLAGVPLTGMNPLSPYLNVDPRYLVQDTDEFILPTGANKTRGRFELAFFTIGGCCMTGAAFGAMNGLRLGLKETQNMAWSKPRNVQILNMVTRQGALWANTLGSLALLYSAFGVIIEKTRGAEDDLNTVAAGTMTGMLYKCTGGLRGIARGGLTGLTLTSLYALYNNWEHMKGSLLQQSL


Tests used:
Tim50-FLAG [1] = molecular target: Tim50-FLAG (UniProt Q3ZCQ8); experiment: co-IP; Tim50-FLAG immunopurification in the presence of the Tom20-binding deficient PINK1 mutants (SI Appendix, Fig. S9)
Tom22-FLAG = Tom22-FLAG (UniProt Q9NS69); experiment: co-IP; FLAG immunocapture from isolated mitochondria of WT U2OS cells transfected with Tom22-FLAG or Tim50-FLAG; 20 µM CCCP or DMSO 4 h; elution with FLAG peptides; immunoblot
Tim50-FLAG [2] = molecular target: Tim50-FLAG (UniProt Q3ZCQ8); experiment: as above
Tim23-FLAG = molecular target: T1, Tim23-FLAG; experiment: co-IP; FLAG immunocapture from isolated mitochondria of HEK293T cells transfected with Tim50-FLAG or Tim23-FLAG; 20 µM CCCP 4 h; elution with FLAG peptide; immunoblot
Tim50-FLAG [3] = molecular target: Tim50-FLAG (UniProt Q3ZCQ8); experiment: as above
[4] = molecular target: pCMV(d1)TNT PINK1(WT)-3HA (human) (UniProt Q9BXM7); experiment: native gel or EMSA; BN-PAGE of 1% digitonin-solubilised mitochondria and immunoblot; U2OS PINK1 KO cells transfected with PINK1-HA (WT or mutants), 20 µM CCCP 4 h or ΔOTC expression; comigration at 720 kDa
PINK1-HA I131E (human) = PINK1-HA I131E (human) (UniProt Q9BXM7); experiment: co-IP; HA immunocapture (anti-HA magnetic beads) from isolated mitochondria of U2OS PINK1 KO cells transfected with PINK1-HA (WT or mutants); 20 µM CCCP 4 h or ΔOTC for 36 h; elution with HA peptide, 0.2% digitonin; immunoblot
PINK1-HA L540K (human) = PINK1-HA L540K (human) (UniProt Q9BXM7); experiment: as above
PINK1-HA A536E (human) = PINK1-HA A536E (human) (UniProt Q9BXM7); experiment: as above
[5] = molecular target: pCMV(d1)TNT PINK1(WT)-3HA (human) (UniProt Q9BXM7); experiment: as above

binding (Tim50-FLAG [1])	binding [4]	binding (PINK1-HA I131E (human))	binding (PINK1-HA L540K (human))	binding (PINK1-HA A536E (human))	Molecule	other results
no binding					PINK1-HA I131E (from UniProt Q9BXM7)	
no binding					PINK1-HA L540K (from UniProt Q9BXM7)	
	binds	no binding	no binding	no binding	Tim23 subunit of the TIM23 complex, endogenous (protein, UniProt O14925 1-209) MEGGGGSGNKTTGGLAGFFGAGGAGYSHADLAGVPLTGMNPLSPYLNVDPRYLVQDTDEFILPTGANKTRGRFELAFFTIGGCCMTGAAFGAMNGLRLGLKETQNMAWSKPRNVQILNMVTRQGALWANTLGSLALLYSAFGVIIEKTRGAEDDLNTVAAGTMTGMLYKCTGGLRGIARGGLTGLTLTSLYALYNNWEHMKGSLLQQSL	

Second part, the molecule before the results:

Molecule	binding (Tim50-FLAG [1])	binding [4]	binding (PINK1-HA I131E (human))	binding (PINK1-HA L540K (human))	binding (PINK1-HA A536E (human))	other results
PINK1-HA A536E (from UniProt Q9BXM7)	no binding					
PTEN-induced putative kinase 1 (PINK1), endogenous (from UniProt Q9BXM7)						binding (Tom22-FLAG): binds; binding (Tim50-FLAG [2]): binds; binding (Tim23-FLAG): binds; binding (Tim50-FLAG [3]): binds
Tim50 subunit of the TIM23 complex, endogenous (from UniProt Q3ZCQ8 45-353)		binds	no binding	no binding	no binding	
Tom22 subunit of the TOM complex, endogenous (from UniProt Q9NS69 1-142)						binding [5]: binds
Tim22 subunit of the TIM22 translocase, endogenous (protein, UniProt Q9Y584 1-194) MAAAAPNAGGSAPETAGSAEAPLQYSLLLQYLVGDKRQPRLLEPGSLGGIPSPAKSEEQKMIEKAMESCAFKAALACVGGFVLGGAFGVFTAGIDTNVGFDPKDPYRTPTAKEVLKDMGQRGMSYAKNFAIVGAMFSCTECLIESYRGTSDWKNSVISGCITGGAIGFRAGLKAGAIGCGGFAAFSAAIDYYLR		no binding				
Tom40 subunit of the TOM complex, endogenous (protein, UniProt O96008 1-361) MGNVLAASSPPAGPPPPPAPALVGLPPPPPSPPGFTLPPLGGSLGAGTSTSRSSERTPGAATASASGAAEDGACGCLPNPGTFEECHRKCKELFPIQMEGVKLTVNKGLSNHFQVNHTVALSTIGESNYHFGVTYVGTKQLSPTEAFPVLVGDMDNSGSLNAQVIHQLGPGLRSKMAIQTQQSKFVNWQVDGEYRGSDFTAAVTLGNPDVLVGSGILVAHYLQSITPCLALGGELVYHRRPGEEGTVMSLAGKYTLNNWLATVTLGQAGMHATYYHKASDQLQVGVEFEASTRMQDTSVSFGYQLDLPKANLLFKGSVDSNWIVGATLEKKLPPLPLTLALGAFLNHRKNKFQCGFGLTIG			no binding	no binding	no binding	binding [5]: binds
